Measurements: patent US10590383B2, “Methods for differentiating pluripotent cells” (FUJIFILM Cellular Dynamics, Inc., priority 2016, dated 2020)
For at least one compound, name, drawing or mass did not settle the structure.

Tested on: human induced pluripotent stem cell (iPS) cell lines
Test: mDA progenitor patterning on process day 17 (FoxA2 by flow cytometry, FoxA2/Lmx1 co-expression by ICC)
Format: cell-based
Details: single SMAD inhibitor
Procedure: Midbrain neuronal differentiation of human induced pluripotent stem cell (iPS) cell lines expanded on VTN-TN in Essential 8 medium was performed with small molecule and growth factor induction using a variety of differentiation media compositions and schedules as detailed in Tables 1-5. Generally, the iPS cells were cultured in D1 DA Neuron Induction Medium on Day 1, D2 Neuron Induction Medium on Day 2, and D3-D4 DA Induction Medium on Day 3 and 4. On Day 5, the cells were dissociated with TrypLE for 15 minutes and collected in DA Quench Medium before transferring the cells to a spinner flask suspension culture to form aggregates in D5 DA Neuron Aggregate Formation Medium.
On Day 6, the aggregates were settled, about 66% of the medium was removed, and the aggregates were fed DA Neuron Induction Medium. On Days 7-16, the aggregates were fed daily with DA Neuron Aggregate Maintenance Medium, and the medium was changed on Day 11 through 16. On Day 17, aggregates were dissociated to a single-cell suspension with TrypLE and plated onto Matrigel in D17 DA Neuron Aggregate Plating Medium. On Days 18, 20, 22 the medium was replaced with DopaNeuron Maturation Medium. On Day 24, the cells were dissociated using Accutase and plated in DA Neuron Maturation Plating Medium. The next day, the medium was replaced with DopaNeuron Maturation Medium. […]

`c1cc(-c2cnn3cc(-c4ccc(OCCN5CCCCC5)cc4)cnc23)ccn1` [dorsomorphin] was tested, and the “use in mono-SMAD inhibition methods to produce midbrain dopaminergic neurons from iPS cells” value was “successfully used”.
